Test system: mouse embryonic stem cells
Assay: MTT cell viability assay of tert-butyl hydroperoxide oxidative stress-induced cytotoxicity in mouse embryonic stem cells
Assay type: cell-based
Experimental: Oxidative stress and related free radical damage can be induced in cells, including stem cells, by exposing the cells to tert-butyl hydroperoxide in the incubation medium. Decomposition of the peroxide over a period of time leads to a steady generation of reactive oxygen species. This in turn triggers a cascade of free radical-mediated events that eventually leads to irreversible damage and ultimately cell death as the natural antioxidant defences are overwhelmed.
The extent of cytotoxicity induced by peroxide exposure can be quantified using a number of well-documented assays, including the MTT protocol. This is a colorometric assay that measures the reduction of MTT to formazan, a process that can only occur when cells are viable. Thus, by comparing the amount of formazan produced in control cells, against cells treated with a cytotoxic agent, such as tert-butyl hydroperoxide, the reduction in cell viability induced by the agent can be measured.
The assay can be further extended to determine the effectiveness of compounds to provide protection against cytotoxic agents. In the case of the novel antioxidants, the subject of this patent, this can be achieved by pre-incubation of the cells with the antioxidant agent prior to induction of oxidative stress by tert-butyl hydroperoxide. Thus a comparison of the amount of formazan produced by control cells against cells with the cytotoxic peroxide present, plus or minus pre-incubation with the novel antioxidant, can determine the extent by which the compound can retain cell viability.
A 96-well plate was seeded with approximately 20,000 mouse embryonic stem cells per well and left to grow at 37° C. (5% CO2) overnight. Antioxidants, denoted as Exp.1, Exp.2 and Exp.3, were dissolved in DMSO and added to the wells in triplicate 30 min before induction of oxidative stress with tert-butyl hydroperoxide. The resultant concentrations of the tested antioxidants in the wells were 0.1, 0.5 and 1 μM. Controls were also initiated using cell medium (DMEM^+)/DMSO. After the 30 min pre-incubation period, tert-butyl peroxide was added to the wells to provide a final concentration of 400 μM. The plated cells were returned to the incubator (37° C.) for 90 min. After this period, 20 μL of the MTT reagent solution was added to all of the wells. The plate was then further incubated for a further 3 hours. The supernatant was removed from the wells and 200 μl DMSO added to all wells to solubilise reduced MTT (formazan). The plate was protected from light and shaken for 10 min. The supernatant was removed from the wells and aliquoted into a new 96-well plate for the colorometric measurements. Absorbance was determined at 540 nm.
The average corrected absorbance. (0.737) for the DMEM^+ control (which contained no antioxidant compounds or tert-butyl hydroperoxide) represented the 100% viability benchmark. Comparison of the corrected absorbances in the various well treatment regimes relative to that of the DMEM^+ control enabled the resultant effects on cell viability to be calculated. tBHP=tert-butyl hydroperoxide.

[1] = 0.1 μM compound, 30 min pre-incubation, then 400 μM tBHP 90 min, 540 nm
[2] = 0.5 μM compound, 30 min pre-incubation, then 400 μM tBHP 90 min, 540 nm
[3] = 1 μM compound, 30 min pre-incubation, then 400 μM tBHP 90 min, 540 nm
[4] = 400 μM tBHP alone, no antioxidant, 90 min, 540 nm
[5] = 1 μM compound, no tBHP, MTT, absorbance at 540 nm

| SMILES | Ave. Absorbance [1] | Ave. Corrected Absorbance [1] | Ave. Absorbance [2] | Ave. Corrected Absorbance [2] | Ave. Absorbance [3] | Ave. Corrected Absorbance [3] | Ave. Absorbance [4] | Ave. Corrected Absorbance [4] | Ave. Absorbance [5] | Ave. Corrected Absorbance [5] |
| --- | --- | --- | --- | --- | --- | --- | --- | --- | --- | --- |
| CCCCCCCCc1cc(=O)c(O)c(-c2cc(O)c(O)c(O)c2)o1 [Exp.3] | 0.328 | 0.254 | 0.483 | 0.409 | 0.593 | 0.519 |  |  |  |  |
| CC(C)(C)OO [tBHP, tert-butyl hydroperoxide, reference compound] |  |  |  |  |  |  | 0.347 | 0.273 |  |  |
| CCCCCCCCCCc1ccc2c(=O)c(O)c(-c3cc(O)c(O)c(O)c3)oc2c1 [Exp.1] | 0.494 | 0.420 | 0.712 | 0.638 | 0.700 | 0.625 |  |  | 0.866 | 0.791 |
| CCCCCCCCCCCCc1cc(=O)c(O)c(-c2cc(O)c(O)c(O)c2)o1 [Exp.2] | 0.520 | 0.446 | 0.773 | 0.699 | 0.788 | 0.714 |  |  | 0.841 | 0.767 |

— patent US8188144B2, “In vitro preservation of living animal cells and compounds suitable for use in the preservation of living animal cells” (Antoxis Limited, priority 2007, dated 2012)
